Laboratory results: PubChem BioAssay AID1159584 (Peter MacCallum Cancer Centre, 2016)
Purpose: 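Knock-downs that harm CDH1-null cells more than parental MCF10A cells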 (primary screen). Cell system: human MCF10A breast epithelial cells, parental and CDH1-null. Knock-down reagent: siRNA against human genes. Measurement: 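Cell viability by CellTiter-Glo ATP luminescence, each line scaled to the mean of mock wells across plates, then CDH1-null over parental ratio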. Reading the numbers: CDH1-null / parental viability ratio: higher = CDH1-null cells survive relatively better than parental; CDH1-null viability vs mock: higher = more viable CDH1-null cells; parental viability vs mock: higher = more viable parental cells.
Here is an unselected part of about 18,000 deposited reagents. Not stated in the record: the amount of reagent, the time to read-out.

The first 2 records as a preview:
| target | CDH1-null / parental viability ratio | CDH1-null viability vs mock (fraction of mock) | parental viability vs mock (fraction of mock) |
| --- | --- | --- | --- |
| HNRNPR (GeneID 10236) | 1.09 | 1.02 | 0.94 |
| SPHKAP (GeneID 80309) | 0.73 | 0.44 | 0.6 |

The listing, from the first entry:
| target | CDH1-null / parental viability ratio | CDH1-null viability vs mock (fraction of mock) | parental viability vs mock (fraction of mock) |
| --- | --- | --- | --- |
| HNRNPR (GeneID 10236) | 1.09 | 1.02 | 0.94 |
| SPHKAP (GeneID 80309) | 0.73 | 0.44 | 0.6 |
| CREB1 (GeneID 1385) | 0.66 | 0.57 | 0.86 |
| CD46 (GeneID 4179) | 1.16 | 0.89 | 0.77 |
| IFNA2 (GeneID 3440) | 0.85 | 0.76 | 0.89 |
| S100A4 (GeneID 6275) | 0.81 | 0.42 | 0.52 |
| CHPF2 (GeneID 54480) | 1.16 | 1 | 0.86 |
| HMGCS2 (GeneID 3158) | 0.78 | 0.8 | 1.02 |
| C19orf48P (GeneID 84798) | 1.37 | 0.82 | 0.6 |
| UQCR11 (GeneID 10975) | 1.04 | 0.99 | 0.95 |
| PNLDC1 (GeneID 154197) | 1.06 | 0.82 | 0.77 |
| MARS1 (GeneID 4141) | 0.93 | 0.8 | 0.86 |
| SLC17A2 (GeneID 10246) | 1.07 | 1.04 | 0.97 |
| ABCC9 (GeneID 10060) | 1.3 | 1.17 | 0.9 |
| THRA (GeneID 7067) | 0.95 | 0.72 | 0.76 |
| ZNF488 (GeneID 118738) | 1.29 | 0.9 | 0.7 |
| BCO1 (GeneID 53630) | 1.02 | 0.98 | 0.96 |
| ALDH3A1 (GeneID 218) | 0.93 | 0.56 | 0.6 |
| BORCS6 (GeneID 54785) | 1.76 | 0.6 | 0.34 |
| RAMP1 (GeneID 10267) | 0.95 | 0.97 | 1.02 |
| PCBP2 (GeneID 5094) | 0.96 | 0.75 | 0.78 |
| HPGDS (GeneID 27306) | 1.15 | 0.97 | 0.84 |
| ZFP30 (GeneID 22835) | 1.21 | 1.17 | 0.97 |
| INTS2 (GeneID 57508) | 1.22 | 0.78 | 0.64 |
| VRK1 (GeneID 7443) | 0.96 | 0.96 | 1 |
| SLC25A5 (GeneID 292) | 1.18 | 1.09 | 0.92 |
| FGFR1OP2 (GeneID 26127) | 0.97 | 0.75 | 0.77 |
| OR6C65 (GeneID 403282) | 1.17 | 0.98 | 0.84 |
